# Assay results as given in publication PMC5748679.
# For at least one entry, the source does not settle the construct or the ends of the probe. A negative result means that nothing was seen under these conditions. Where a protein sequence is shown, tags need not be part of it.
# Test system: T1, NsrRTh
# T1 sequence (looked up, limits assumed): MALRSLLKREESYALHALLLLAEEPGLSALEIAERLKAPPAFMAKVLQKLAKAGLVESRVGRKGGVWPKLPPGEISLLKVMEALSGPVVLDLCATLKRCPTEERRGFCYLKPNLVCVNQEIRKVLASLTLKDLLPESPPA
# Assay: EMSA
# Conditions: 20 mM HEPES pH 6.9, 50 mM NaCl, 0.1 mg/mL BSA, 5 mM beta-mercaptoethanol, 0.5 ug poly(dI-dC), 25-50 nM DNA, 10 min at 60 C, 6% PAGE at room temperature, recombinant protein, protein details: C-terminal His (pET22b)
# [1] = 500 nM protein, 50 nM DNA, label: DY782 5' on reverse strand, probe letters rebuilt from the primers and the genome
Sequence,binding result [1],"binding result (500 nM protein, 50 nM DNA)","binding result (with NsrS (no effect on binding), label: DY782 5' on reverse strand, probe letters rebuilt from the primers and the genome)","binding result (with NsrS and NsrT (no effect on binding), label: DY782 5' on reverse strand, probe letters rebuilt from the primers and the genome)","binding result (with NsrT (no effect on binding), label: DY782 5' on reverse strand, probe letters rebuilt from the primers and the genome)"
AAAACATATGGTTATCCTCCAAGCGGGTGGGGGCGCGTTTCCATGACCGGGGTCAAGGGGCCGGGGACGGACCCCGGCCCCCAGGGCCTCAGTAGATGTCGTGGGCGGTGTTGTAGACGTTGAACTTGCCCGTGGGCGTGCGCACCCAGTCCCCGGTGATCCGGGCCTTTTCCTTGAGGGTCAGGGCGTCGTAGACCACGATGAAGGTGGGCGTATCCTTGCTCCCCCAGGCGGAAACCCAGATCTCCGTGCCCCCCTTGTTGAACTCGGGGTGGACCATGCGGGCCTTGAGCTCCCGGGCCCCCGGCACCTCCCAGCACTTGGTGACTTCAAGTCTAGATTTT (double strand) [PnirJ344],binds,–,–,–,–
AAAAAGGGAAGGAAGGGTCGGAGTTTATGAGCCGGAGGTGAAAGGAGGGTAAG (double strand) [PnorC -56],–,no binding,–,–,–
GGAAGGGTCGGAGTTTATGAGCCGGAGGTGAAAGGAGGGTAAG (double strand) [PnorC -51],–,no binding,–,–,–
AAAATCTAGACTTGGGCCACACCCCTCCTTTCCGCCCCACGCGGCTTTCCACAAGGCCCGCCTTGGCGAGCTTCTGGAGCACCTTGGCCATGAAGGCGGGCGGGGCCTTGAGCCTCTCGGCGATCTCCAAGGCGGAAAGGCCGGGCTCCTCGGCCAAGAGGAGAAGGGCGTGAAGGGCGTAGGACTCCTCCCGCTTTAGAAGGCTCCGAAGGGCCATGGCCCCATGCTAACCCCAGGCGTAGAAGGTCCGCGGAGGCCCAAGGGACGTTCGCCCTTGACCTAGGTCATGGAAAAAGGGAGGGAAGGGTCGGAGTTTATGAGCCGGAGGTGAAAGGAGGGTAAGCATATGTTTT (double strand) [PnorC353],binds,–,binds,binds,binds
